These are yes or no findings as the source states them, for the method shown. In cells and extracts the contact can be indirect. A result given as binding can be weak or reduced; the word gives no strength.

From publication PMC10542451 come the findings set out here.

In the test the target is PADI3β (mouse peptidylarginine deiminase 3, alternative isoform) (mouse) (UniProt E9QAM4). The test can be described thus: co-IP; triple transfection of PADI3α-HA, PADI3α-Flag and PADI3β-His into HEK293 cells, harvested 48 h after transfection, RIPA lysate; precipitated with anti-HA-tag magnetic beads or Dynabeads His-tag Isolation and pulldown; blotted for Flag.

B1: PADI3α (mouse peptidylarginine deiminase 3, canonical isoform) (enzyme, UniProt Q9Z184 1-664)
chain: MSLQRIVRVSLEHPTSAVCVAGVETIVDIYGAVPEGTDMFEVYGTPGVDIYVSPSMERSRERADTRRWCFNKGLEIIVIMNSPSNDLNDSHVQIAYHSSREHLPLAYAVLYLTCVDITLDCDMNCADRQDRSFVDKRQWVWGPDGYGAILLVNCDRDNVDSNAQDNCDQYVRCLQDLEDMSVMVLRTQGPEALFEDHRLILHTSSCDAERARVFHVCGPEDSCESYKCVLGPDRMSYEVPRLKGYEERFFVEGLSFPDAGFPGLISFHVTLLDDSNEDFSETPIFTDTAVFRVAPWIMTPSTLPPLEVYVCRVRNNTCFVEAVEELARKAGCKLTICPQAENRNDRWIQDEMELGYVQAPHKTLPVVFDSPRNGELQGFPYKRILGLDFGYVTREPKDSSVSGLDSFGNLEVSPPVVANGKEYPLGRILIGGNLPGSRGRRVTQVVRNFLHAQKVQPLVELFVDWLAVGHVDEFLSFVPAPDGKGFRLLLASPGACFRLFQEKQKWGHGRSLLFEGVIGDRRVQTVSINQILNNQSLINFNKFAQSCIDWNREVLKRELGLAEGDIIDIPQLFKTEKRKAVAFFPDLVNMLVLGKHLGIPKPFGPIINGRCCLEEKVRSLLEPLGLHCTFIDDFTPYHMLHGEVHCGTNVRREPFAFKWWHMVP
Consider B1, for which the binding entry is on record as “binds”.
